Construct, isoform or probe ends are uncertain for at least one entry. No signal at the amounts used counts as a negative. At least one verdict was read from the data and is not stated in words by the source. Tags and fusion partners may be left off the protein sequences shown.

Three sequences from publication PMC8191757, “m6A RNA methylation of major satellite repeat transcripts facilitates chromatin association and RNA:DNA hybrid formation in mouse heterochromatin” can be followed below.

In this series the target is T1, NLS-HBD(H1)-eGFP (mouse) (UniProt O70338).
T1 sequence (looked up): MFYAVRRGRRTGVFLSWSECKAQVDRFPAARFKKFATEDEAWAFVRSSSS
Briefly: EMSA. Particulars: EMSA: 20 nM hybrid, 125 nM-0.5 uM protein, 20 mM Tris-HCl pH 8.0, 150 mM NaCl, 5 mM MgCl2, 12.5% glycerol, 0.05% Triton X-100, 1 mM DTT, 1 h at 4 C, recombinant protein, residues 27-76. Background: In EMSA bound probe runs differently from free probe, usually more slowly.

Turning to “TTTTCCACCTTTTTCAGTTTTCCTCGCCATATTTC (double strand) [MSR SR2 dsDNA]”, the binding result (data not shown) is “no binding”.

As for “UUUUCCACCUUUUUCAGUUUUCCUCGCCAUAUUUC / GAAATATGGCGAGGAAAACTGAAAAAGGTGGAAAA [MSR SR2 RNA:DNA hybrid (RR/DF), unmodified]”, the binding result (label: 5'-Cy5, DNA:RNA hybrid) is recorded as “binds”. As to “GAAAUAUGGCGAGGAAAACUGAAAAAGGUGGAAAA / UUUUCCACCUUUUUCAGUUUUCCUCGCCAUAUUUC [MSR SR2 dsRNA]”, the binding result (data not shown) was “no binding”.
